Test results: patent US20240335537A1
No constants are given. Whether binding was seen depends on the method and setting. Some binding calls cover weakened binding; strength is not graded here.

The chains behind the UniProt entries cited, without tags or fusion partners. Where a name states a change or a piece, a line headed by the entry shows the natural chain unless it says otherwise. Residues count along the entry.
UniProt P48023, residues 134-281: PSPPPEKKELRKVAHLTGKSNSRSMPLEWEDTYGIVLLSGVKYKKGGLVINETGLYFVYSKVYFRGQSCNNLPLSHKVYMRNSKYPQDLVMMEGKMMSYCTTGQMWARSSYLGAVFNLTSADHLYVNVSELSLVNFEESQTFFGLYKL
UniProt P25445: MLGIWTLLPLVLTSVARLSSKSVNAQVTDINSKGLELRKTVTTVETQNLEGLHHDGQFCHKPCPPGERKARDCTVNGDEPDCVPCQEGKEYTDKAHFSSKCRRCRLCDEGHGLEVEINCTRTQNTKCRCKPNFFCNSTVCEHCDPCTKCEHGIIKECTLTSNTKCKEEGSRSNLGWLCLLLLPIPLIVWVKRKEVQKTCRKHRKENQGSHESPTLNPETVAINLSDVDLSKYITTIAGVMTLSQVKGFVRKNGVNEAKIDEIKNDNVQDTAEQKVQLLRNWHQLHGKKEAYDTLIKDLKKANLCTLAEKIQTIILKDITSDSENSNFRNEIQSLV

Biological target: Recombinant Fas ligand (BioLegend) (UniProt P48023)
Assay: ELISA-based neutralization assay with conditioned medium

- binding: binds
Substance: Fas Decoy (FD) (from UniProt P25445 26-173) (receptor)
